Measured values as given in article PMC5510225.
Results are given in words; binding and its absence hold for the method and conditions named. Some binding calls cover weakened binding; strength is not graded here. For some assays here: Where a sequence is shown, tags or fusion partners need not be part of it.

Sequences of proteins named here, by UniProt entry; tags and fusion partners are left off.
UniProt P08362: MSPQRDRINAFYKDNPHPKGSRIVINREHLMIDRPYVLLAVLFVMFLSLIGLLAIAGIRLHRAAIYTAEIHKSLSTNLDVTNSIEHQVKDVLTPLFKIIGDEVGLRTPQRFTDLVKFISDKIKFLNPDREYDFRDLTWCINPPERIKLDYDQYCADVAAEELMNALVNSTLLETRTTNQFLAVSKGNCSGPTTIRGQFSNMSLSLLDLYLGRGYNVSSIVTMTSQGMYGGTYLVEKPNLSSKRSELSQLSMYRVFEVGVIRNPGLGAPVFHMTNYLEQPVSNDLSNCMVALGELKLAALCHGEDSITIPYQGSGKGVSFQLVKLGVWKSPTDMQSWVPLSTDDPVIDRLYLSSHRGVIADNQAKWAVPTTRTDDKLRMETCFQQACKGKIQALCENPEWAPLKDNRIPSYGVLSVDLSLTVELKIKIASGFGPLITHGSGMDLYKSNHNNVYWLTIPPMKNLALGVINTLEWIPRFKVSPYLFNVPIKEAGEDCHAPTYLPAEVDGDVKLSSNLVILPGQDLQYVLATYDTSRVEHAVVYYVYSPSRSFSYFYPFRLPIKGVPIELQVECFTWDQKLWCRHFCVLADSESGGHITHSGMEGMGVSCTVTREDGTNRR
UniProt Q9IH62: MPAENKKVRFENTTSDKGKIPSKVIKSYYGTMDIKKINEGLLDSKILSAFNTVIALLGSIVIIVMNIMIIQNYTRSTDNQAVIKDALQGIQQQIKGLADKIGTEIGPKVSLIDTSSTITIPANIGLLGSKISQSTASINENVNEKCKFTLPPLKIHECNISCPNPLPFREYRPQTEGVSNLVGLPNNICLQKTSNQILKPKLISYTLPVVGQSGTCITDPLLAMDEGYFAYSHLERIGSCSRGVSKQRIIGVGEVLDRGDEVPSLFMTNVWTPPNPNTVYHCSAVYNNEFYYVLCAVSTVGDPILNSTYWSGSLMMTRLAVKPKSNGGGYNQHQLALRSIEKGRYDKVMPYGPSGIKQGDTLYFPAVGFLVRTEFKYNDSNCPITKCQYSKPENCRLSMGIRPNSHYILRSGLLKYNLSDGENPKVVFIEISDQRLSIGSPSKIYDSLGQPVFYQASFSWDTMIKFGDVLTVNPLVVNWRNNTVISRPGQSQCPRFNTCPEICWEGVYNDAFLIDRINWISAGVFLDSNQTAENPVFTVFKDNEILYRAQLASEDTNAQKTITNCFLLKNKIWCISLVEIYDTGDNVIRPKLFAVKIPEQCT

B1: soluble human CD150 with a C-terminal FLAG epitope tag (receptor, UniProt Q13291)
chain: ASYGTGGRMMNCPKILRQLGSKVLLPLTYERINKSMNKSIHIVVTMAKSLENSVENKIVSLDPSEAGPPRYLGDRYKFYLENLTLGIRESRKEDEGWYLMTLEKNVSVQRFCLQLRLYEQVSTPEIKVLNKTQENGTCTLILGCTVEKGDHVAYSWSEKAGTHPLNPANSSHLLSLTLGPQHADNIYICTVSNPISNNSQTFSPWPGCRTDPSETKP
B2: human ephrinB3-hFc (Fc fusion, UniProt Q15768)
chain: LSLEPVYWNSANKRFQAEGGYVLYPQIGDRLDLLCPRARPPGPHSSPNYEFYKLYLVGGAQGRRCEAPPAPNLLLTCDRPDLDLRFTIKFQEYSPNLWGHEFRSHHDYYIIATSDGTREGLESLQGGVCLTRGMKVLLRVGQSPRGGAVPRKPVSEMPMERDRGAAHSLEPGKENLPGDPTSNATSRGAEGPLPPPSMP

Columns and labels:
[1] = target: measles virus haemagglutinin glycoprotein, expressed on transfected cells (measles virus) (UniProt P08362); assay: flow cytometry on cells
[2] = target: Nipah virus attachment glycoprotein, HA-tagged, expressed on transfected cells (Nipah virus) (UniProt Q9IH62); assay: flow cytometry on cells; only the binder purified

| Binder | binding [1] | binding [2] |
| --- | --- | --- |
| B1 | binds | – |
| B2 | – | binds |
